# Source: the supplement of paper PMC12067093, “Discovery and optimisation of a covalent ligand for TRIM25 and its application to targeted protein ubiquitination” (Chemical Science, 2025)
# Sequences of proteins named here, by UniProt entry; tags and fusion partners are left off. A change or cut given only in a name is not applied to a line headed by its entry.
# UniProt O75362: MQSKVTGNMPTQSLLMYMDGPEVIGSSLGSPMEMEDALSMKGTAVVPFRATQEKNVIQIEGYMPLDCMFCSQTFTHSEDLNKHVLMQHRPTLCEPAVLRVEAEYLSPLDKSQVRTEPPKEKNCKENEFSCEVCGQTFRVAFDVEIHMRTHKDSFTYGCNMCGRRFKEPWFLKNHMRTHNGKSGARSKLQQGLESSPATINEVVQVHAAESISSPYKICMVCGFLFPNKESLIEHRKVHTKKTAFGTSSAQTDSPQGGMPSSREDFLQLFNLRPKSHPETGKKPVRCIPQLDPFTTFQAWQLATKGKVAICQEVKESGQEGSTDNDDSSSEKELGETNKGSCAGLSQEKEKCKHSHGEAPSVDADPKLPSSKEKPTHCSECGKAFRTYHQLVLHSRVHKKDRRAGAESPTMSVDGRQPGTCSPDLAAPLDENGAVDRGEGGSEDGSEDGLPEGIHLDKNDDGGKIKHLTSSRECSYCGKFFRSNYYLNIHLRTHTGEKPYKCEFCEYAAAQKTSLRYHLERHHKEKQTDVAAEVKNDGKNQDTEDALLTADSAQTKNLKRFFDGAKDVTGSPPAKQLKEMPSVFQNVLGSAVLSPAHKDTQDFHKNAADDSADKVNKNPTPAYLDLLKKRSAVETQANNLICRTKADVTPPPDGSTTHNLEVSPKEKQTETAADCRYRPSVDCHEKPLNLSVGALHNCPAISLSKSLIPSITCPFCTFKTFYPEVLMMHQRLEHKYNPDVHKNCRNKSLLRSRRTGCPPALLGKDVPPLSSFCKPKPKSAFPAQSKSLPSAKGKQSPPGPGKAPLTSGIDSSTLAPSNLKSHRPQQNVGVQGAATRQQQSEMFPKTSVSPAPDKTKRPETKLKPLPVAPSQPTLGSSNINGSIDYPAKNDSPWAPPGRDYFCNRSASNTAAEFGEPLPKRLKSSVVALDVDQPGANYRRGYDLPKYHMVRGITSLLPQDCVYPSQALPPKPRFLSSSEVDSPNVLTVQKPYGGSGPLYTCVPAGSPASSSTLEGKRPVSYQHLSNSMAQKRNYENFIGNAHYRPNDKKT
# UniProt Q9Y3S2: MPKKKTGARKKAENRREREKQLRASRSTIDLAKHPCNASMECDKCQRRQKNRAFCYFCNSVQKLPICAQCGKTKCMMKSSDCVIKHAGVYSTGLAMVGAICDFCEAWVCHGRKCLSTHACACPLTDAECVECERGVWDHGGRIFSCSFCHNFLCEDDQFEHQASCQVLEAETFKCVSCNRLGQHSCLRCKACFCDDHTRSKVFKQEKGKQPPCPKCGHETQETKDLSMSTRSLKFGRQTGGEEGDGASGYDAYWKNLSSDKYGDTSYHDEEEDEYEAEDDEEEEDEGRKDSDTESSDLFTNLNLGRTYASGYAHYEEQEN
# UniProt Q9ULU4: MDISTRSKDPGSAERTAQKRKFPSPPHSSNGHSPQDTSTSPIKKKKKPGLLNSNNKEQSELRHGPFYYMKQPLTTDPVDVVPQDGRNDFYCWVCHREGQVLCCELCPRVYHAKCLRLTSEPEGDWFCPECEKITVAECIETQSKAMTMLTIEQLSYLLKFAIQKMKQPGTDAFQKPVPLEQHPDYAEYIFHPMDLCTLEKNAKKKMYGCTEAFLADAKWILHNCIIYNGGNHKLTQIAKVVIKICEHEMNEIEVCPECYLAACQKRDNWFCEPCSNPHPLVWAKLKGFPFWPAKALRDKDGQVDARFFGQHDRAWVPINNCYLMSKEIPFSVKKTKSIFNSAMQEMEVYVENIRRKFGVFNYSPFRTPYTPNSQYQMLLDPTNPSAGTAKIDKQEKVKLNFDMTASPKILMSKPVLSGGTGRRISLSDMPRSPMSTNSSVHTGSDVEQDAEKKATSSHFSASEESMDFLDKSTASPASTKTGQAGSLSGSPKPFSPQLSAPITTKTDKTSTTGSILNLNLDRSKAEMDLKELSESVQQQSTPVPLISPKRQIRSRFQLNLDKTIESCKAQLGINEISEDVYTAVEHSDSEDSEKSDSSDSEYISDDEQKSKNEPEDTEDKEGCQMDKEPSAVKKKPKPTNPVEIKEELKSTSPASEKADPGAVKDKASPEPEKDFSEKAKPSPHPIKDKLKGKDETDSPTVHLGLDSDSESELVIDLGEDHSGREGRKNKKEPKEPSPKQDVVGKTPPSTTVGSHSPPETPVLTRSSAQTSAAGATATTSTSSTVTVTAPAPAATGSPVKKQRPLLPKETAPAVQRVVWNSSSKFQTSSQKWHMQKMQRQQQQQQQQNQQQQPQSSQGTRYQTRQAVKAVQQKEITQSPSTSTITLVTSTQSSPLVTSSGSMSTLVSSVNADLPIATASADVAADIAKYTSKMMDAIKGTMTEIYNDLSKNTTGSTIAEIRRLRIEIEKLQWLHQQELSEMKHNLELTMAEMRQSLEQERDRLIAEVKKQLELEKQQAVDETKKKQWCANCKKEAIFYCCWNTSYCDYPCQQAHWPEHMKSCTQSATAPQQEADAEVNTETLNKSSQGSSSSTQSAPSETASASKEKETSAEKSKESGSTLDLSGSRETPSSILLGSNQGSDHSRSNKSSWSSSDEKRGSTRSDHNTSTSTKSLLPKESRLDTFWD
# UniProt Q5BKZ1: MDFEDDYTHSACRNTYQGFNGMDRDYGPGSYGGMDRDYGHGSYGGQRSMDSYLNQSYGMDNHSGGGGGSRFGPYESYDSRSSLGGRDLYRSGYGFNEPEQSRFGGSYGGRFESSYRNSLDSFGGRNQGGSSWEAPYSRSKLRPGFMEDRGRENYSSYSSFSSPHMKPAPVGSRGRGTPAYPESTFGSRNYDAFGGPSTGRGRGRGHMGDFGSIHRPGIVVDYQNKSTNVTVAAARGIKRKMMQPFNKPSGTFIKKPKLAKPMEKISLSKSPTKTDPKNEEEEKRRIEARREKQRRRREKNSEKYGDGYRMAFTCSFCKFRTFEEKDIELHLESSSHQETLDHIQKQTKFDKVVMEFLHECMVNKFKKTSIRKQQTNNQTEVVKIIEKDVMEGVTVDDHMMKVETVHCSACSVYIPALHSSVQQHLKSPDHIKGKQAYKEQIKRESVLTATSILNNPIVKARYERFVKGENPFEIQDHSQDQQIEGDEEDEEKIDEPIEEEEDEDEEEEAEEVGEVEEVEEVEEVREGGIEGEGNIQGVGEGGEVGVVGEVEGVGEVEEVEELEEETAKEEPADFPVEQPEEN
# UniProt Q6N043: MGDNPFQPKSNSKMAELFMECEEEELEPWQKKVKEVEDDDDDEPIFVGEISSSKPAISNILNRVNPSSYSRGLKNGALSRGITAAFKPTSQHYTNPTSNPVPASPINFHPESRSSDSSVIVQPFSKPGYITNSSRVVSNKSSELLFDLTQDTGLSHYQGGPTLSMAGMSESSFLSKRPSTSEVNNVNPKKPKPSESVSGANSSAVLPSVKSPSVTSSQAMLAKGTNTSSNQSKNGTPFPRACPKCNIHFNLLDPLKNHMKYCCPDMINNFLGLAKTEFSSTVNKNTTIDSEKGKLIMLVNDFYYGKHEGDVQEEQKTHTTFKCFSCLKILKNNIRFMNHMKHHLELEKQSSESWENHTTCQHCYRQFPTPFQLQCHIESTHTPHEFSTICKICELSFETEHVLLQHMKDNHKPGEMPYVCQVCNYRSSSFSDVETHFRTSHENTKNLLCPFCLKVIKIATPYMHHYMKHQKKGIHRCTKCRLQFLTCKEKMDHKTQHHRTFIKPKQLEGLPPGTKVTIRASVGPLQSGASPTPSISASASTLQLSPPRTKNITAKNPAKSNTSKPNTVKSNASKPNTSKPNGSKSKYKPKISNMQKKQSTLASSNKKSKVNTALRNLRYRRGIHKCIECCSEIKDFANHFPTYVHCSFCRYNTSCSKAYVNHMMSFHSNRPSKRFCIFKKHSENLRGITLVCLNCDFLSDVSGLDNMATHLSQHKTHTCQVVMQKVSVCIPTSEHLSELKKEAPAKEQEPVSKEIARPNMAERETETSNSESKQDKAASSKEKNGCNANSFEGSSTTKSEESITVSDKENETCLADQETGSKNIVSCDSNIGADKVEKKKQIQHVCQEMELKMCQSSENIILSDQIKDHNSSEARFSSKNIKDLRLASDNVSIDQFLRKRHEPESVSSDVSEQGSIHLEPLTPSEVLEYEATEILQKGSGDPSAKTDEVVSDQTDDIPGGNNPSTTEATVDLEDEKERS
# UniProt Q96KR1: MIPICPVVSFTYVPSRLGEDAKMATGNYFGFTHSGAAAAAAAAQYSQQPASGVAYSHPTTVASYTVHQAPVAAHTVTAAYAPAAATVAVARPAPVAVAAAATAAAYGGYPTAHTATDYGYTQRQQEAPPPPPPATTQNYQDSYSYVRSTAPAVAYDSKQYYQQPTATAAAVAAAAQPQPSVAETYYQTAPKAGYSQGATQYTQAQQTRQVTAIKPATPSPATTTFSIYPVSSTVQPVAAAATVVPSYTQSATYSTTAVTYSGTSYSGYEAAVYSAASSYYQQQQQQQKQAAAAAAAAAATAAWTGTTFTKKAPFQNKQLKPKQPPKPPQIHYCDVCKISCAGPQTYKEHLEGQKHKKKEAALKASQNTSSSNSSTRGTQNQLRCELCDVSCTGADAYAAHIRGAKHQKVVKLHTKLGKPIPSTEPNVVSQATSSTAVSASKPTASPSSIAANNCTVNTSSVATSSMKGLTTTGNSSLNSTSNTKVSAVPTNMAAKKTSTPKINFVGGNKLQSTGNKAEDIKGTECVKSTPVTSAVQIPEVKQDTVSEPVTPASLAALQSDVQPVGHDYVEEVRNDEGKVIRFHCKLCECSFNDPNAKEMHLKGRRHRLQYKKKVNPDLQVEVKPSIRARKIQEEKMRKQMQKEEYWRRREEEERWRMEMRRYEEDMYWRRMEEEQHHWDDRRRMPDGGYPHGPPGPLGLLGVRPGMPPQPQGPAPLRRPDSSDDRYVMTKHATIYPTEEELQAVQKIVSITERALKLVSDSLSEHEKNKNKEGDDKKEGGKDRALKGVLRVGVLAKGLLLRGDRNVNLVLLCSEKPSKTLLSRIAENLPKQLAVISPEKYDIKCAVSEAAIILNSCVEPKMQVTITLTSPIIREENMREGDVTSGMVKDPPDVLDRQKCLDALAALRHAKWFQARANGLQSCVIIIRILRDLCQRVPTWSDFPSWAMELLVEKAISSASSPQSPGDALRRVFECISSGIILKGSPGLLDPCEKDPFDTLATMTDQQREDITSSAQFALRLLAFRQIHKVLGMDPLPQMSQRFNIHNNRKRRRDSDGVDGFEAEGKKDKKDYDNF
# UniProt Q96ME7: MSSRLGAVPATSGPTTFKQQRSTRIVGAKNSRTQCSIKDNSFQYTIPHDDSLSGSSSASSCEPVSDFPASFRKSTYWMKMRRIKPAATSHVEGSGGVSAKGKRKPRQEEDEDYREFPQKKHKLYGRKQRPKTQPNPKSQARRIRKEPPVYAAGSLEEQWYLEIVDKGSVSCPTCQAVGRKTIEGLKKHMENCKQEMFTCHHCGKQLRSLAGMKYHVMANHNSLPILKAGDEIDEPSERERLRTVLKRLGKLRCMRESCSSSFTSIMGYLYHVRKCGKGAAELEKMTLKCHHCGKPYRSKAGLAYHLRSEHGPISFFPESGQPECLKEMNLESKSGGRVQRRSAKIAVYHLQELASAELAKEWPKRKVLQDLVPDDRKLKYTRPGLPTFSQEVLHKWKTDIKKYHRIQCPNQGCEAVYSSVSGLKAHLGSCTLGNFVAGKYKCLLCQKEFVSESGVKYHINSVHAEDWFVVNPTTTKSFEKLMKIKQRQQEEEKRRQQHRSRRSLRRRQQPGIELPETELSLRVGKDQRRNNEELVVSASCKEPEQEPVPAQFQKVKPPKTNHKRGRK
# UniProt Q9H8U3: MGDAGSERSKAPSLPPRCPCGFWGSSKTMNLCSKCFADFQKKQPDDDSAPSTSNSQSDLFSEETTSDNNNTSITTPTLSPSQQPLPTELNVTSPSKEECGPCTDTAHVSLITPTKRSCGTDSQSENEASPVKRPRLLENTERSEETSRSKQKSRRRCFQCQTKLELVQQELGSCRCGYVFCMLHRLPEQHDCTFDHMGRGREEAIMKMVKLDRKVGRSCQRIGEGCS
# UniProt O95159: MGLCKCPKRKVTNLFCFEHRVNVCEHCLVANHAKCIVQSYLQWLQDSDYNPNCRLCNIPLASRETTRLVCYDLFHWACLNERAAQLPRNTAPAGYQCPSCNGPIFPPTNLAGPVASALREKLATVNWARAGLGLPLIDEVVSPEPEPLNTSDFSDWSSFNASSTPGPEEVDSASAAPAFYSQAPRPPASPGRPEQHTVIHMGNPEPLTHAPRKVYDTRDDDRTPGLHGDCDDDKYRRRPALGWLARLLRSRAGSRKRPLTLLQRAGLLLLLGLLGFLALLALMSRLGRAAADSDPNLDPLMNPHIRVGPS
# UniProt Q96C55: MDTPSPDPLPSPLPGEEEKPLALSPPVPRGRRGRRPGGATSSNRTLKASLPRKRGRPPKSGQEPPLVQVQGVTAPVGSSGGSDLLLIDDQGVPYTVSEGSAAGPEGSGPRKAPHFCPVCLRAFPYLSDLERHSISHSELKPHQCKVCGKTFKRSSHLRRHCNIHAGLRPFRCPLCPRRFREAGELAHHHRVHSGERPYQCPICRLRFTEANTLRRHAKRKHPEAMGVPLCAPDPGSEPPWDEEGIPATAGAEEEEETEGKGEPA
# This is one part of the list.
# Compound: CC1Cc2ccccc2N1C(=O)C1CCCN(C1)C(=O)CCl (mixture of isomers) [TRIM25 ligand 11 (diastereomer mixture)]
# Assay: probe-labelled cysteine peptide fold change vs DMSO (competition) (log2 fold change); higher = less target engagement (more negative = stronger competition)
# Details: 50 µM; THP-1; incubation time: 4 h
# 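Note: competitive chemoproteomic profiling in live THP-1 cells with an iodoacetamide desthiobiotin (IA-DTB) probe, comparing probe-labelled peptide intensities in compound-treated cells against DMSO-treated controls.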
row,Target,probe-labelled cysteine peptide fold change
1,ZMYND11_Q15326_258_DTCHELDELQLCK (UniProt Q15326),0.18
2,ZNF280C_Q8ND82_388_ICELSFETEHILLQHMK (UniProt Q8ND82),-0.0218
3,ZNF217_O75362_697_PLNLSVGALHNCPAISLSK (UniProt O75362),0.0836
4,ZNF460_Q14592_450_PYVCIQCGK (UniProt Q14592),-0.123
5,ZMYM3_Q14202_501_VYPCVWCK (UniProt Q14202),0.127
6,ZFP91_Q96JP5_313+318_CEMEGCGTVLAHPR (UniProt Q96JP5),-0.222
7,ZNF124_Q15973_292+295_THIAQKPYVCNNCGK (UniProt Q15973),-0.315
8,ZNF316_A6NFI3_861_CADCGR (UniProt A6NFI3),0.163
9,ZNF330_Q9Y3S2_67+70_LPICAQCGK (UniProt Q9Y3S2),-0.0418
10,ZMYND8_Q9ULU4_567_TIESCK (UniProt Q9ULU4),-0.128
11,ZNF598_Q86UK7_119_QLLQHECPR (UniProt Q86UK7),0.0167
12,ZGRF1_Q86YA3_2008_EIIILSCVR (UniProt Q86YA3),0.379
13,ZNF326_Q5BKZ1_12_MDFEDDYTHSACR (UniProt Q5BKZ1),-0.303
14,ZFYVE16_Q7Z3T8_863_QPGVEGLCSK (UniProt Q7Z3T8),-0.174
15,ZNF280D_Q6N043_323_CFSCLK (UniProt Q6N043),0.233
16,ZMIZ2_Q8NF64_471_CYHHEDR (UniProt Q8NF64),0.117
17,ZNF106_Q9H2Y7_22_DISHECR (UniProt Q9H2Y7),0.153
18,ZFR_Q96KR1_844+856_CAVSEAAIILNSCVEPK (UniProt Q96KR1),-0.0422
19,ZNF207_O43670_54_LYTGPGLAIHCMQVHK (UniProt O43670),0.179

row,Target,probe-labelled cysteine peptide fold change
1,ZNF592_Q92610_463_ASDSSSPSCSSGPR (UniProt Q92610),-0.166
2,ZNF512_Q96ME7_540_NNEELVVSASCK (UniProt Q96ME7),-0.146
3,ZNF326_Q5BKZ1_314+317_MAFTCSFCK (UniProt Q5BKZ1),-0.043
4,ZNF106_Q9H2Y7_457_SPLLPCPATK (UniProt Q9H2Y7),-0.241
5,ZFAND3_Q9H8U3_192_LPEQHDCTFDHMGR (UniProt Q9H8U3),-0.21
6,ZFPL1_O95159_70_LVCYDLFHWACLNER (UniProt O95159),0.00577
7,ZNF512_Q96ME7_324_SEHGPISFFPESGQPECLK (UniProt Q96ME7),-0.122
8,ZNF524_Q96C55_161_HCNIHAGLRPFR (UniProt Q96C55),-0.16
9,ZNF280D_Q6N043_449_NLLCPFCLK (UniProt Q6N043),-0.0986
10,ZNF592_Q92610_265_ELGTCSSVPPR (UniProt Q92610),0.0487
11,ZNF451_Q9Y4E5_741_CLQIMLDK (UniProt Q9Y4E5),0.187
12,ZNF217_O75362_641_SAVETQANNLICR (UniProt O75362),-0.196
13,ZMYM3_Q14202_968_ASSDLCDLVSNQSAEGLLEDCDLFGPAR (UniProt Q14202),-0.207
14,ZNF592_Q92610_648_GLVMQCSQLLVK (UniProt Q92610),0.172
15,ZMYM3_Q14202_1326_SCIAESPLWYSVIPMDR (UniProt Q14202),0.0429
16,ZMYND8_Q9ULU4_130_LTSEPEGDWFCPECEK (UniProt Q9ULU4),-0.0488
17,ZMYM3_Q14202_1197_VEEEHLWECK (UniProt Q14202),0.175
18,ZFYVE1_Q9HBF4_45_CEEELHRQER (UniProt Q9HBF4),-0.0541
19,ZNF592_Q92610_201_FPVPELHMFDHFCK (UniProt Q92610),-0.198

# Pulled one by one from above, 2 records:
row,Target,probe-labelled cysteine peptide fold change
18,ZFR_Q96KR1_844+856_CAVSEAAIILNSCVEPK (UniProt Q96KR1),-0.0422
15,ZNF280D_Q6N043_323_CFSCLK (UniProt Q6N043),0.233
